The list is a part of this screen's results and no random one: it is rich in T/C values a quarter to a half above the control, in often repeated tests (any T/C) and in doses without a T/C. Other doses and runs of a compound stand elsewhere. T/C gives the treated animals as a percentage of the vehicle group. Some entries give survivors of the animals treated and no T/C: the source holds a T/C of zero for them, seemingly a mark for toxic or unscored doses. Some doses without a T/C left all or most animals alive at the check, yet need not have been tolerated: the source hardly ever lists a survival T/C far under the control, and the zero likely stands for such cases as well. Counts of survivors are from the toxicity check (mostly the fifth day) where no day follows; animals may have died later. Schedule codes are those of the source, taken here to give the interval after Q, in days (D) or hours (H), and the number of doses after X. Some entries hold several experiments; the results are listed from low to high. Some schedules carry Z or #; the key to these is not given. Some molecules as drawn cover several salts, stereoisomers or complexes of the source; a dose is that of the sample tested. Where survival is the endpoint, the PubChem record calls one and a half times the control and up active, and a quarter to a half above the control has no call in these data; cut-offs in other NCI protocols can differ.

The test system of this assay is L1210 leukemia ip in BDF1 mice, survival T/C. Description: NCI In Vivo Anticancer Drug Screen. Data for tumor model L1210 Leukemia (intraperitoneal) in B6D2F1 (BDF1) mice. The note with it: T/C endpoint: mean survival time, higher T/C = longer survival.
The mark [1] stands for this setting: dose: 100.0 mg/kg/injection, schedule: Q01DX001 (ip), vehicle: saline.
[2] abbreviates: dose: 200.0 mg/kg/injection, schedule: Q01DX001 (ip), vehicle: saline.
[3] abbreviates: dose: 400.0 mg/kg/injection, schedule: Q01DX001 (ip), vehicle: saline.
Setting [4] is: dose: 100.0 mg/kg/injection, schedule: Q04DX002 (ip), vehicle: saline.
Where [5] appears, read: dose: 400.0 mg/kg/injection, schedule: Q01DX009 (ip), vehicle: saline.
[6] abbreviates: dose: 400.0 mg/kg/injection, schedule: Q04DX003 (ip), vehicle: saline.
[7] abbreviates: dose: 400.0 mg/kg/injection, schedule: Q04DX003 (ip), vehicle: Klucel (hydroxypropylcellulose) (HPC).
The mark [8] stands for this setting: dose: 100.0 mg/kg/injection, schedule: Q04DX003 (ip), vehicle: saline.
The mark [9] stands for this setting: dose: 200.0 mg/kg/injection, schedule: Q01DX009 (ip), vehicle: Klucel (hydroxypropylcellulose) (HPC).
[10] abbreviates: dose: 400.0 mg/kg/injection, schedule: Q01DX009 (ip), vehicle: Klucel (hydroxypropylcellulose) (HPC).
The mark [11] stands for this setting: dose: 400.0 mg/kg/injection, schedule: Q04DX002 (ip), vehicle: Klucel (hydroxypropylcellulose) (HPC).
[12] abbreviates: dose: 200.0 mg/kg/injection, schedule: Q01DX009 (ip), vehicle: saline with Tween-80.
The mark [13] stands for this setting: dose: 200.0 mg/kg/injection, schedule: Q04DX002 (ip), vehicle: saline.
[14] abbreviates: dose: 400.0 mg/kg/injection, schedule: Q04DX002 (ip), vehicle: saline.

On to `O=C(CBr)c1ccncc1`, for which the survivor count was 0 of 4 (dose: 40.0 mg/kg/injection, schedule: Q01DX001 (ip), vehicle: saline); 0 of 4 (dose: 80.0 mg/kg/injection, schedule: Q01DX001 (ip), vehicle: saline); 0 of 4 under setting [1]; 0 of 4 under setting [2]; 0 of 4 under setting [3].

Turning to `[C](#[C][Sn]([c]1ccccc1)([c]1ccccc1)[c]1ccccc1)[Sn]([c]1ccccc1)([c]1ccccc1)[c]1ccccc1`, the survivor count under setting [4] is 3 of 3.

With `NC(=O)c1ccc[n+](Cc2ccccc2)c1`, under setting [5], the survivor count is on record as 0 of 6.

`C[n+]1ccccc1/C=N/O`: the T/C (dose: 50.0 mg/kg/injection, schedule: Q01DX009 (ip), vehicle: saline) was 132 % of control. For the same compound, the survivor count reads like this: (dose: 300.0 mg/kg/injection, schedule: Q01DX009 (ip), vehicle: Klucel (hydroxypropylcellulose) (HPC)) 0 of 6; under setting [5], 0 of 6; under setting [6], 0 of 6.

For the compound `c1ccc(C2C(c3ccccc3)N2C23CC4CC(CC(C4)C2)C3)cc1` (stereo not drawn), the survivor count under setting [7] is reported as 6 of 6.

Regarding `c1ccc([P+](c2ccccc2)(c2ccccc2)c2ccc([P+](c3ccccc3)(c3ccccc3)c3ccccc3)cc2)cc1`, the survivor count reads like this: (dose: 25.0 mg/kg/injection, schedule: Q04DX003 (ip), vehicle: saline) 0 of 6; (dose: 50.0 mg/kg/injection, schedule: Q04DX003 (ip), vehicle: saline) 0 of 6; under setting [8], 0 of 6; (dose: 200.0 mg/kg/injection, schedule: Q04DX003 (ip), vehicle: saline) 0 of 6; under setting [6], 0 of 6.

Turning to `O=C1OC(=O)C2C3C=CC(C3)C12` (stereo not drawn), the survivor count reads like this: under setting [9], 3 of 6; under setting [10], 0 of 6; under setting [7], 6 of 6.

In the case of `CCC(C(OC(C)=O)C(C)C)[N+](=O)[O-]` (stereo not drawn), the survivor count is recorded as 1 of 6 (dose: 37.5 mg/kg/injection, schedule: Q01DX001 (ip), vehicle: other); 0 of 6 (dose: 75.0 mg/kg/injection, schedule: Q01DX001 (ip), vehicle: other); 0 of 6 (dose: 150.0 mg/kg/injection, schedule: Q01DX001 (ip), vehicle: other); 0 of 6 (dose: 300.0 mg/kg/injection, schedule: Q01DX001 (ip), vehicle: other).

`CC1(C)C=CC(=NO)C=C1`: the survivor count under setting [10] is reported as 0 of 6.

As for `CCN(CC)CCCC#N`, the survivor count under setting [3] is recorded as 1 of 4.

As for `O=C(O)c1cc(Cl)c(Br)c(Cl)c1`, under setting [11], the survivor count is given as 3 of 3.

Regarding `CCCCC1=C(OCC)C(CCCC)C1=O` (stereo not drawn), the survivor count was 6 of 6 under setting [9], 0 of 6 under setting [10] and 5 of 6 under setting [7].

On to `CCOC(=O)c1cnc(C)nc1Nc1ccccc1Cl`, for which the survivor count by setting is: under setting [8], 1 of 6; under setting [6], 0 of 6.

In the case of `Nc1nc(N)nc(-c2ccncc2)n1`, the survivor count is, setting by setting: (dose: 100.0 mg/kg/injection, schedule: Q01DX009 (ip), vehicle: saline with Tween-80) 0 of 3; under setting [12], 0 of 3.

`O=C(CCN1CCC(c2ccccc2)CC1)c1ccc(F)cc1`: the survivor count (dose: 400.0 mg/kg/injection, schedule: Q01DX001 (ip), vehicle: carboxymethylcellulose (CMC)) is given as 0 of 4.

In the case of `ClC(Cl)C(Cl)(Cl)C(Cl)(Cl)Cl`, the survivor count under setting [7] was 3 of 6.

In the case of `O=C(O/N=C(\C(=O)c1ccccc1)c1ccccc1)c1ccc(Br)cc1`, the survivor count (dose: 400.0 mg/kg/injection, schedule: Q04DX003 (ip), vehicle: saline with Tween-80) is given as 6 of 6.

Regarding `CC(=O)OCC1OC(n2cc(C(F)(F)F)c(=O)[nH]c2=O)CC1OC(C)=O` (stereo not drawn), the T/C is, setting by setting: (dose: 150.0 mg/kg/injection, schedule: Q01DX Z (oral), vehicle: saline) 144 % of control; (dose: 320.0 mg/kg/injection, schedule: Q01DX009 (oral), vehicle: saline) 132 % of control; (dose: 320.0 mg/kg/injection, schedule: Q01DX011 (ip), vehicle: saline) 147 % of control; (dose: 320.0 mg/kg/injection, schedule: Q01DX Z (ip), vehicle: saline) 130 % of control; (dose: 600.0 mg/kg/injection, schedule: Q01DX011 (oral), vehicle: saline) 130 % of control; (dose: 640.0 mg/kg/injection, schedule: Q01DX009 (oral), vehicle: saline) 136 % of control.

In the case of `O=NC1C(Cl)C2CC1C1C=CCC12` (stereo not drawn), the survivor count reads like this: under setting [12], 0 of 6; (dose: 400.0 mg/kg/injection, schedule: Q01DX009 (ip), vehicle: saline with Tween-80) 0 of 6.

Turning to `CCC1CCN(CC)CC1`, the survivor count (dose: 40.0 mg/kg/injection, schedule: Q01DX009 (ip), vehicle: saline) is listed as 1 of 6; the survivor count under setting [4] was 0 of 3 and 0 of 6; the survivor count under setting [13] is 0 of 3 and 0 of 6; the survivor count under setting [14] was 0 of 3 and 0 of 6.

In the case of `O=C(Nc1ccc(C2=NCCCN2)cc1)Nc1cccc(C(=O)Nc2ccc(C3=NCCCN3)cc2)c1`, the T/C (dose: 10.0 mg/kg/injection, schedule: Q01DX Z (ip), vehicle: carboxymethylcellulose (CMC)) was 135 % of control. The survivor count (dose: 50.0 mg/kg/injection, schedule: Q01DX Z (ip), vehicle: carboxymethylcellulose (CMC)) is 3 of 6.

Take `Cc1cnc(C)c(OCCN2CC2)n1`: the survivor count is 0 of 6 under setting [2] and 0 of 6 under setting [3].

`OCC1OC(n2cnc3c(Cl)ncnc32)C(O)C1O` (stereo not drawn): the survivor count (dose: 62.5 mg/kg/injection, schedule: Q01DX010 (ip), vehicle: saline) was 6 of 6.

As for `COc1ccc(C(=O)N/N=C/c2cccc(OC)c2OC)cc1`, the T/C under setting [11] is 129 and 130 % of control. Moreover, the survivor count (dose: 800.0 mg/kg/injection, schedule: Q04DX002 (ip), vehicle: Klucel (hydroxypropylcellulose) (HPC)) was 2 of 6.

Turning to `CCCCN1CC1CC` (stereo not drawn), the survivor count is 0 of 6 (dose: 200.0 mg/kg/injection, schedule: Q01DX001 (ip), vehicle: Klucel (hydroxypropylcellulose) (HPC)) and 0 of 6 (dose: 400.0 mg/kg/injection, schedule: Q01DX001 (ip), vehicle: Klucel (hydroxypropylcellulose) (HPC)).

On to `CCN(CC)CCSC(=S)N1c2ccccc2Sc2ccccc21`, for which the survivor count (dose: 280.0 mg/kg/injection, schedule: Q01DX009 (ip), vehicle: saline) was 2 of 6.

With `CNCCCNCC(Cc1ccccc1)c1ccccc1` (stereo not drawn), the survivor count under setting [13] is listed as 0 of 3 and the survivor count under setting [14] is 0 of 3.

For `OC1C2CCN(CC2)C1CNC12CC3CC(CC(C3)C1)C2` (stereo not drawn), the survivor count under setting [6] was 0 of 6.

For the compound `O=C(NCCC[P+](c1ccccc1)(c1ccccc1)c1ccccc1)OCc1ccccc1`, the survivor count is, setting by setting: (dose: 50.0 mg/kg/injection, schedule: Q01DX009 (ip), vehicle: carboxymethylcellulose (CMC)) 0 of 3 and 0 of 6; (dose: 100.0 mg/kg/injection, schedule: Q01DX001 (ip), vehicle: carboxymethylcellulose (CMC)) 0 of 3 and 1 of 6; (dose: 100.0 mg/kg/injection, schedule: Q04DX003 (ip), vehicle: carboxymethylcellulose (CMC)) 0 of 3 and 0 of 6.

Regarding `C1C2CC3C1C1CN3C21` (stereo not drawn), the survivor count runs as follows: (dose: 50.0 mg/kg/injection, schedule: Q01DX001 (ip), vehicle: saline) 0 of 6; under setting [1], 0 of 6; under setting [2], 6 of 6.
